{
  "source": "patent US20210290580A1",
  "about": "“New use of carbamate ß phenylethanolamine analogues for enhancing intracellular clearance of LDL cholesterol and for combining therapy with statins to enhance the efficacy and reduce adverse effects” (priority 2018, published 2021)",
  "key": {"[1]": {"system": "Mouse liver AML12 cells", "assay": "Up-taking of fluorescence labeled LDL by liver cells", "assay_type": "cell-based", "settings": "10 μM and 20 μM, 24 hours, compared between groups", "description": "Cells were incubated with florescence labeled LDL to study the up-taking and metabolite of LDL cholesterol by the cells. LDL specific antibody were used to study LDL receptors expressed by the cells. […] After 24 hours of treatments, the cells were washed and fixed with paraformaldehyde. Cells were then incubated with anti-LDLR primary antibody with 1:200 dilution at room temperature for 4 hours. After washed, the second antibody Alexa Fluor 488 with 1:200 dilutions was added and incubated at room temperature for 2 hours. The cells were washed again before examined under fluorescent microscope. The fluorescence anti-body bound LDL receptors in green and either bound or internalized fluoresces labeled LDL in red were examined separately or after merging. Fluorescent microscope equipped with a digital camera (Axio Observer 7). Computer software was used to quantify the intensity of fluorescence, which is correlated with the amount of LDL and LDL receptors bounded to antibodies."}, "[2]": {"system": "hyperlipidemia rabbits", "settings": "rabbit, in vivo"}, "[3]": {"system": "Pulmonary artery smooth muscle cell (PASMC)"}},
  "data": [
    {"smiles": "CC(C)c1c(C(=O)Nc2ccccc2)c(-c2ccccc2)c(-c2ccc(F)cc2)n1CC[C@@H](O)C[C@@H](O)CC(=O)O", "note": "[Statin, Atorvastatin]", "values": [
      {"measurement": "Bound and intracellular fluorescence labeled LDL", "setting": "[1]", "result": "more than LDL alone group but less than R-bambuterol treated groups"},
      {"measurement": "Toxicity effects by pathological examining", "setting": "[2]", "result": "significant"},
      {"measurement": "Toxicity to the viability of PASMC, in words", "setting": "[3]", "result": "dose-dependent inhibition of cell viability"}
    ]}
  ]
}
